Reference: PubChem BioAssay AID2685 (National Center for Advancing Translational Sciences (NCATS), 2010)
Some of the results follow. Further columns of the screen follow, without active or inactive calls. The list favours compounds with an active or inconclusive main result. The note in brackets gives the kind of curve behind each potency; many fits are weak.

Experiment: qHTS Assay for Lipid Storage Modulators in Drosophila S3 Cells;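 as to cell number change: cells counted by Cell Tracker Red CMTPX staining in the red channel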
Conditions: BODIPY lipid droplet fluorescence, 18-24 h; for cell number change: measured here: cell count max response, cells fed with added oleic acid
Procedure, shortened: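 Laser-scanning cytometry quantifies lipid droplet accumulation (500–530 nm total intensity; droplet/cell object ratio) in oleic acid-fed (400 uM added) Drosophila S3 cells treated with a concentration series. 20 uM Triacsin C defined 100% inhibition.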

[1] = measured here: lipid fluorescence (Fed channel) AC50, cells fed with added oleic acid
[2] = measured here: cell number channel AC50, cells fed with added oleic acid

| SMILES | cell number change [%] | AC50 [1] | AC50 [2] |
| --- | --- | --- | --- |
| O=C(NCc1ccccn1)c1cc(-n2cnnc2)ccc1Cl | -4.77 | 2.59 µM [falling, partial curve, poor fit] |  |
| CCn1nc(C)cc1C(=O)Sc1cccc(Br)c1 | -4.91 | 29.1 µM [falling, single point] |  |
| COc1cccc(CN(C)CC(=O)NC(=O)NCc2ccco2)c1 | 32.9 | 23.1 µM [rising, single point] | 20.6 µM [rising, single point] |
| CCc1nnc(NC(=O)CN2CCN(Cc3ccc(F)cc3)CC2)s1 | 30.4 |  | 29.1 µM [rising, single point] |
| COc1ccc([C@]23Cc4c(ccc5ccccc45)C(O2)C2=C(CCCC2=O)O3)cc1 | 31.4 | 5.31 µM [rising, single point] | 2.37 µM [rising, partial curve] |
| COc1ccc(-c2csc(NC(=O)C3CSC4(C)CCC(=O)N34)n2)c(OC)c1 (stereo unspecified) | 24.4 | 1.16 µM [rising, partial curve] |  |
| CCOC(=O)N1CCN(CCC(=O)Nc2ccc(C)c(Br)c2)CC1 | -17 | 0.82 µM [falling, single point] |  |
| COc1cc2c(cc1OC)CN(C(=O)c1ccccc1C(=O)O)CC2 | -0.881 | 6.51 µM [falling, single point] |  |
| Cc1cccc(NC(=O)c2cc(=O)c3ccccc3o2)n1 | -22 | 20.6 µM [falling, single point] |  |
| COc1ccc(S(=O)(=O)N2CCCCC2)cc1NC(=O)COc1ccccc1 |  | 1.3 µM [rising, full curve, poor fit] |  |
| NC(=S)c1c(Cl)cc(C(F)(F)F)cc1Cl | -8.26 | 0.92 µM [falling, full curve] |  |
| CC(=O)c1c(C)[nH]c(C(=O)Nc2cccc(C)c2C)c1C | 5.86 | 29.1 µM [rising, single point] |  |
| NS(=O)(=O)c1ccc(CCNC(=O)COC(=O)COc2cccc(C(F)(F)F)c2)cc1 | 6.92 | 1.64 µM [rising, partial curve, poor fit] | 0.58 µM [falling, single point] |
| CCOC(=O)c1sc(NC(=O)CSc2nnnn2-c2ccccc2)c(C(=O)OCC)c1C | 31.8 |  | 0.651 µM [rising, full curve] |
| COc1ccc(NC(=O)c2c3c(nc4ccccc24)CCC3)cc1S(=O)(=O)N1CCOCC1 | 11.6 | 0.461 µM [rising, full curve] |  |
| O=C(O)CCC(=O)NNc1ncnc2ccccc12 | 114 |  | 29.1 µM [rising, single point] |
| CN1CCN(S(=O)(=O)c2ccc(NC(=O)C3CCCCC3)cc2)CC1 | 3.19 | 0.092 µM [falling, full curve, poor fit] |  |
| Cc1cccc(OCC(=O)Nc2ccc3c(c2)C(=O)NC3=O)c1 | 15.6 | 29.1 µM [falling, single point] |  |
| N[C@@H](Cc1ccc(O)c(I)c1)C(=O)O | -30.7 |  | 4.61 µM [falling, full curve, poor fit] |

Part of the list above, with tabs:
SMILES	cell number change [%]	AC50 [1]	AC50 [2]
CCOC(=O)N1CCN(CCC(=O)Nc2ccc(C)c(Br)c2)CC1	-17	0.82 µM [falling, single point]	
NS(=O)(=O)c1ccc(CCNC(=O)COC(=O)COc2cccc(C(F)(F)F)c2)cc1	6.92	1.64 µM [rising, partial curve, poor fit]	0.58 µM [falling, single point]

A second format for 2 compounds above:
SMILES,cell number change [%],AC50 [1],AC50 [2]
COc1ccc(NC(=O)c2c3c(nc4ccccc24)CCC3)cc1S(=O)(=O)N1CCOCC1,11.6,"0.461 µM [rising, full curve]",
Cc1cccc(OCC(=O)Nc2ccc3c(c2)C(=O)NC3=O)c1,15.6,"29.1 µM [falling, single point]",

Later entries

| SMILES | cell number change [%] | AC50 [1] | AC50 [2] |
| --- | --- | --- | --- |
| Cc1ccc(SC(C)C(=O)Nc2ccccc2C(=O)N2CCOCC2)cc1 (stereo unspecified) | -19.8 | 29.1 µM [falling, single point] |  |
| O=C(CCCN1C(=O)/C(=C/c2cccs2)SC1=S)NNC(=O)c1cccnc1 | -2.43 | 1.3 µM [rising, full curve] |  |
| CCOCCCNC(=O)/C(C#N)=C/c1ccc(-c2ccc(S(=O)(=O)N3CCOCC3)cc2)o1 | 6.35 | 6.51 µM [rising, single point] |  |
| O=C1COc2ccc(C(=O)COC(=O)CCSc3ccc(Cl)cc3)cc2N1 |  |  | 1.03 µM [falling, full curve] |
| Cc1cc(C)nc(N2C(=O)CC(C(C)c3ccccc3)C2=O)n1 (stereo unspecified) | -41.9 | 3.26 µM [falling, full curve] | 5.8 µM [falling, full curve] |
| CN=c1scc(-c2ccccc2Br)n1/N=C/c1ccc[nH]1 |  | 29.1 µM [rising, single point] |  |
| CCc1nnc(NC(=O)Cn2ccc(C(F)(F)F)n2)s1 | -38 |  | 18.4 µM [falling, single point] |
| CCCCNC(=O)/C=C/c1cccs1 | 35.3 | 29.1 µM [rising, single point] | 20.6 µM [rising, single point] |
| COCC1CCN(C(=O)c2oc3c(F)cccc3c2C)C1 (stereo unspecified) | -9.39 | 6.51 µM [falling, single point] |  |
| NC(=O)Cc1nc(-c2ccc(Br)cc2)cs1 | 77.6 | 0.651 µM [rising, full curve, poor fit] | 0.651 µM [rising, full curve, poor fit] |
| COCC(C)N1CCC(n2nccc2NC(=O)CCCc2ccccc2)CC1 (stereo unspecified) | -4.58 | 29.1 µM [rising, single point] |  |
| CC(NC(=O)CSc1nc2ccccc2n1CCC#N)c1ccc(F)cc1 (stereo unspecified) | 31.4 | 0.651 µM [rising, full curve, poor fit] | 11.6 µM [rising, partial curve, poor fit] |
| O=C(CNS(=O)(=O)c1ccc(Br)s1)N1CCN(c2ncccn2)CC1 | 253 | 23.1 µM [rising, partial curve] | 23.1 µM [rising, partial curve] |
| COc1cccc(CNC2CCCCCCC2)c1OC | 4.4 | 6.51 µM [rising, single point] |  |
| Nc1ccc(S(=O)(=O)Nc2ccccn2)cc1 | 31.6 | 13 µM [rising, partial curve, poor fit] | 16.4 µM [rising, partial curve, poor fit] |
| COc1ccc(C(=O)NCC(=O)OCc2c(Cl)cccc2Cl)cc1OC | 83.9 |  | 16.4 µM [rising, partial curve] |
| Clc1ccccc1OCc1nc(-c2ccccn2)no1 | -0.742 | 4.61 µM [rising, single point] |  |
| CNC(=O)NC(=O)C(C)OC(=O)c1c2c(nc3ccccc13)/C(=C/c1cccs1)CC2 (stereo unspecified) | -35 | 0.411 µM [falling, full curve] | 1.03 µM [falling, full curve] |
| CCOc1c(Br)cc(C(N)=O)cc1OCc1ccccc1 | -11.6 | 3.66 µM [rising, partial curve, poor fit] |  |

| SMILES | cell number change [%] | AC50 [1] | AC50 [2] |
| --- | --- | --- | --- |
| COc1cc2ccccc2cc1C(=O)Nc1nnc(-c2ccncc2)o1 | 3.02 | 0.013 µM [rising, full curve, poor fit] |  |
| CN1CCN(S(=O)(=O)c2ccc(NC(=O)COc3ccccc3Cl)cc2)CC1 | -1.75 |  |  |
| CN1CCCC(OC(=O)COc2ccc(Br)cc2)C1 (stereo unspecified) | -33.2 | 11.6 µM [falling, partial curve] | 1.64 µM [falling, full curve] |
| Clc1ccc(-c2cc3ccccc3nc2N2CCOCC2)cc1 | 10.4 | 1.46 µM [rising, partial curve] | 0.411 µM [rising, full curve, poor fit] |
| COc1ccc(C(CNC(=O)COc2ccc(C)c(C)c2)N2CCCCC2)cc1 (stereo unspecified) | 18.5 | 29.1 µM [rising, single point] |  |
| CN(C)c1nc(C#N)nc(N2CCOCC2)n1 | 6.76 | 29.1 µM [rising, single point] |  |
| COc1ccc(OC)c(NC(=O)NCCN2CCN(c3ccccc3)CC2)c1 | 6.94 |  |  |
| c1ccc(-c2ccccc2OCCCN2CCCC2)cc1 | 11.8 | 4.11 µM [rising, partial curve] |  |
| CC(C)c1ccc(C2CC(=O)c3cnc(NC(=O)c4ccco4)nc3C2)cc1 (stereo unspecified) | 3.36 | 18.4 µM [falling, partial curve] |  |
| O=C1SCCC1NC(=O)C(c1ccccc1)c1ccccc1 (stereo unspecified) |  | 5.8 µM [falling, partial curve] |  |
| CCC(=O)N1CCN(c2ccc(NC(=O)c3ccc4c(c3)OCO4)cc2)CC1 | -57.2 | 2.59 µM [falling, partial curve] | 2.91 µM [falling, partial curve] |
| CCCCn1c(SCc2nc(N)nc(Nc3ccccc3C)n2)nc2ccccc2c1=O | 79.4 | 5.17 µM [rising, partial curve] | 0.13 µM [rising, full curve] |
| Cc1ccc(CNc2oc(-c3ccco3)nc2S(=O)(=O)c2ccccc2)cc1 | -25.8 | 29.1 µM [falling, single point] |  |
| COc1cc(C(CC(=O)N2CCCC2)c2c(OC)cc(OC)c3c(-c4ccccc4)cc(=O)oc23)cc(OC)c1OC (stereo unspecified) | -50 | 16.4 µM [falling, single point] | 18.4 µM [falling, single point] |
| O=C(CSc1nc(-c2cccs2)cc(C(F)(F)F)n1)Nc1cc(OCC(F)(F)F)cc([N+](=O)[O-])c1 | 0.594 | 29.1 µM [falling, single point] |  |
| CCCCNC(=O)c1ccc(S(=O)(=O)c2ccc(Cl)cc2)c(NC(C)=O)c1 | 20.1 | 1.84 µM [rising, partial curve] | 1.46 µM [rising, partial curve, poor fit] |
| COc1ccc2ccccc2c1/C=N/NC(=O)c1cc(C)[nH]n1 | -7.54 | 4.11 µM [rising, partial curve, poor fit] |  |
| CCN(Cc1ccc(OC)c(F)c1)C(C)C(=O)Nc1ccc(S(=O)(=O)N2CCCC2)cc1 (stereo unspecified) | 14.9 |  |  |
